Where a name gives a salt, the structure may show the parent alone. The list shows a part of the results. Repeats are few or missing, and single values can be far off.

The subject of assay [1] is Saos-2. The assay can be described thus: cell viability (CCK-8) relative to DMSO control (% of control); higher = less cytotoxic. The following applies: 10 µM; 48 h.
The subject of assay [2] is U2OS. The assay is described as above. The settings on record: 10 µM; 48 h.

For `O=C(O)COCCN1CCN(C(c2ccccc2)c2ccc(Cl)cc2)CC1` (stereo not drawn) [Cetirizine 2HCl], the cell viability was 59 in assay [1] and 96.8 in assay [2].

As for `CCC(=O)O[C@]1(C(=O)CCl)[C@@H](C)C[C@H]2[C@@H]3C[C@H](F)C4=CC(=O)C=C[C@]4(C)[C@@]3(F)[C@@H](O)C[C@@]21C` [Halobetasol Propionate], the cell viability stood at 118 in assay [1] and 108 in assay [2].

Turning to `NCC(=O)CCC(=O)O` [Aminolevulinic Acid·HCl], the cell viability in assay [1] was determined as 122; in assay [2], 86.5.

Regarding `CC[C@H]1OC(=O)[C@H](C)C(=O)[C@H](C)[C@@H](O[C@@H]2O[C@H](C)C[C@H](N(C)C)[C@H]2O)[C@](C)(OC)C[C@@H](C)C(=O)[C@H](C)[C@H]2N(CCCCn3cnc(-c4cccnc4)c3)C(=O)O[C@]12C` [Telithromycin], the cell viability in assay [1] stood at 107; in assay [2], 96.5.

Take `CN1C(=O)OC(C)(C)C1=O` [Trimethadione]: the cell viability in assay [1] was found to be 82.1; in assay [2], 83.8.

For the compound `CC(COc1ccccc1)N(CCCl)Cc1ccccc1` (stereo not drawn) [Phenoxybenzamine . hydrochloride], the cell viability turned out to be 68.4 in assay [1] and 115 in assay [2].

For the compound `CCCCCCCN(CC)CCCC(O)c1ccc(NS(C)(=O)=O)cc1` (stereo not drawn) [Ibutilide Fumarate], the cell viability came out at 104 in assay [1] and 107 in assay [2].

Regarding `CC(C)(C(=O)c1cccnc1)c1cccnc1` [Metyrapone], the cell viability in assay [1] is 100; in assay [2], 102.

As to `CNCCC=C1c2ccccc2CCc2ccccc21` [Nortriptyline·HCl], the figures for the cell viability in assay [1] and in assay [2] were 96.8 and 111, respectively.

With `COc1cc2nc(N(C)CCCNC(=O)C3CCCO3)nc(N)c2cc1OC` (stereo not drawn) [Alfuzosin], the cell viability in assay [1] stood at 66.4; in assay [2], 112.

For the compound `Cc1[nH]c(=O)c(C#N)cc1-c1ccncc1` [Milrinone], the cell viability in assay [1] was 63.7; in assay [2], 98.3.

Regarding `CC(S)C(=O)NCC(=O)O` (stereo not drawn) [Tiopronin], the figures for the cell viability in assay [1] and in assay [2] were 106 and 98, respectively.

`C=CC1=C(C(=O)O)N2C(=O)[C@@H](NC(=O)/C(=N\OCC(=O)O)c3csc(N)n3)[C@H]2SC1` [Cefixime]: the cell viability in assay [1] was 112; in assay [2] it was 65.7.

As for `C[C@]12C=CC(=O)C=C1CC[C@@H]1[C@@H]2C(=O)C[C@@]2(C)[C@H]1CC[C@]2(O)C(=O)CO` [Prednisone], the cell viability in assay [1] is 66.9; in assay [2] it was 107.

For `CCc1nn(CCCN2CCN(c3cccc(Cl)c3)CC2)c(=O)n1CCOc1ccccc1` [Nefazodone·HCl], the cell viability in assay [1] is 76.5; in assay [2] it was 101.

With `OCCN(CCO)c1nc(N2CCCCC2)c2nc(N(CCO)CCO)nc(N3CCCCC3)c2n1` [Dipyridamole], the cell viability was determined as 52.9 in assay [1] and 105 in assay [2].

As for `CO[C@H]1/C=C/O[C@@]2(C)Oc3c(C)c(O)c4c(c3C2=O)C2=NC3(CCN(CC(C)C)CC3)NC2=C(NC(=O)/C(C)=C\C=C\[C@H](C)[C@H](O)[C@@H](C)[C@@H](O)[C@@H](C)[C@H](OC(C)=O)[C@@H]1C)C4=O` [Rifabutin], the values for the cell viability in assay [1] and in assay [2] were 112 and 107, respectively.

On to `CCCCc1ncc(/C=C(\Cc2cccs2)C(=O)O)n1Cc1ccc(C(=O)O)cc1` [Eprosartan Mesylate], for which the values for the cell viability in assay [1] and in assay [2] were 59.3 and 119, respectively.

`CNC[C@H](O)c1ccc(O)c(O)c1` [Epinephrine Bitartrate]: the cell viability was 59.1 in assay [1] and 102 in assay [2].

Regarding `CC(=O)N(O)CCCCCNC(=O)CCC(=O)N(O)CCCCCNC(=O)CCC(=O)N(O)CCCCCN` [Deferoxamine Mesylate], the cell viability in assay [1] was 91; in assay [2], 77.7.

Turning to `CCN(CC)C(=O)C1(c2ccccc2)CC1CN` (stereo not drawn) [Milnacipran·HCl], the values for the cell viability in assay [1] and in assay [2] were 105 and 102, respectively.

In the case of `Cn1c(=O)c2c(ncn2C)n(C)c1=O` [Caffeine], the cell viability is 63.1 in assay [1] and 103 in assay [2].

`CC(=O)Nc1ccc(O)cc1` [Acetaminophen]: the cell viability came to 92.3 in assay [1] and 81.3 in assay [2].

Consider `CCCCN1C[C@H](O)[C@@H](O)[C@H](O)[C@H]1CO` [Miglustat (N-Butyldeoxynojirimycin·HCl)], for which the cell viability in assay [1] came out at 69.6; in assay [2] it was 97.2.

For `Cc1cc(NS(=O)(=O)c2ccc(N)cc2)no1` [Sulfamethoxazole], the cell viability in assay [1] came to 110; in assay [2], 92.4.

`COc1cc(C)c(/C=C/C(C)=C/C=C/C(C)=C/C(=O)O)c(C)c1C` [Acitretin]: the cell viability in assay [1] is 63.6; in assay [2], 105.

Take `Cc1cccc(CN2CCN(C(c3ccccc3)c3ccc(Cl)cc3)CC2)c1` (stereo not drawn) [Meclizine Dihydrochloride]: the results for the cell viability in assay [1] and in assay [2] were 108 and 103, respectively.

`N=C(NCCCCCCNC(=N)NC(=N)Nc1ccc(Cl)cc1)NC(=N)Nc1ccc(Cl)cc1` [Chlorhexidine Dihydrochloride]: the cell viability in assay [1] came out at 52; in assay [2], 33.

As to `CN(C/C=C/C#CC(C)(C)C)Cc1cccc2ccccc12` [Terbinafine·HCl], the cell viability was found to be 60.9 in assay [1] and 118 in assay [2].

Take `C=C[C@H]1CN2CC[C@H]1C[C@@H]2[C@@H](O)c1ccnc2ccc(OC)cc12` [Quinidine hydrochloride monohydrate]: the cell viability in assay [1] was determined as 112; in assay [2], 130.

Consider `Nc1nc2[nH]cc(CCc3ccc(C(=O)N[C@@H](CCC(=O)O)C(=O)O)cc3)c2c(=O)[nH]1` [Pemetrexed Disodium], for which the cell viability in assay [1] turned out to be 107; in assay [2], 105.

Take `CC(C)N1CCN(c2ccc(OCC3COC(Cn4cncn4)(c4ccc(Cl)cc4Cl)O3)cc2)CC1` (stereo not drawn) [Terconazole]: the cell viability in assay [1] turned out to be 103; in assay [2], 93.1.

Turning to `CC(C)n1c(/C=C/C(O)CC(O)CC(=O)O)c(-c2ccc(F)cc2)c2ccccc21` (stereo not drawn) [Fluvastatin . sodium salt], the cell viability is 36.8 in assay [1] and 101 in assay [2].

Regarding `COC(c1ccccc1)(c1ccccc1)[C@H](Oc1nc(C)cc(C)n1)C(=O)O` [Ambrisentan], the cell viability amounted to 113 in assay [1] and 95 in assay [2].

As for `CC1(C)S[C@@H]2[C@H](NC(=O)Cc3ccccc3)C(=O)N2[C@H]1C(=O)O` [Penicillin G potassium salt], the values for the cell viability in assay [1] and in assay [2] were 109 and 108, respectively.

Turning to `CN1CCc2cccc3c2[C@H]1Cc1ccc(O)c(O)c1-3` [(R)-(-)-Apomorphine·HCl], the cell viability in assay [1] was 50.4; in assay [2] it was 95.7.

As for `COc1c(C)c2c(c(O)c1C/C=C(\C)CCC(=O)OCCN1CCOCC1)C(=O)OC2` [Mycophenolate Mofetil], the cell viability turned out to be 42.3 in assay [1] and 79.6 in assay [2].

With `COc1ccccc1OCC(O)CN1CCN(CC(=O)Nc2c(C)cccc2C)CC1` (stereo not drawn) [Ranolazine·2HCl], the values for the cell viability in assay [1] and in assay [2] were 66.8 and 107, respectively.

Consider `O=C1C(O)=C([C@H]2CC[C@H](c3ccc(Cl)cc3)CC2)C(=O)c2ccccc21` [Atovaquone], for which the cell viability worked out at 58.9 in assay [1] and 101 in assay [2].

As for `CN1CCC[C@H]1c1cccnc1` [Nicotine], the cell viability in assay [1] was 109; in assay [2], 101.

Take `NCCC(O)(P(=O)(O)O)P(=O)(O)O` [Pamidronate Disodium  Pentahydrate (Pamidronic Acid)]: the figures for the cell viability in assay [1] and in assay [2] were 59.9 and 107, respectively.

For the compound `CC(=O)OC[C@H]1O[C@@H]([S-])[C@H](OC(C)=O)[C@@H](OC(C)=O)[C@@H]1OC(C)=O.CCP(CC)CC.[Au+]` [Auranofin], the values for the cell viability in assay [1] and in assay [2] were 14.9 and 12.9, respectively.

Consider `CO/N=C(\C(=O)N[C@@H]1C(=O)N2C(C(=O)O)=C(COC(C)=O)CS[C@H]12)c1csc(N)n1` [Cefotaxime Acid], for which the cell viability in assay [1] came out at 67.3; in assay [2] it was 92.4.

As to `O=C(O)c1cccnc1` [Niacin], the cell viability came out at 110 in assay [1] and 125 in assay [2].

As to `N=C(N)NCCCC[C@@H]1NC(=O)CCSSC[C@@H](C(N)=O)NC(=O)[C@@H]2CCCN2C(=O)[C@H](Cc2c[nH]c3ccccc23)NC(=O)[C@H](CC(=O)O)NC(=O)CNC1=O` [Eptifibatide], the cell viability in assay [1] came out at 102; in assay [2], 77.9.

With `CC1CNc2c(cccc2S(=O)(=O)N[C@@H](CCCNC(=N)N)C(=O)N2CC[C@@H](C)C[C@@H]2C(=O)O)C1` (stereo partly drawn) [Argatroban], the cell viability was found to be 71.3 in assay [1] and 96.7 in assay [2].

In the case of `CC[C@@H]([C@H](C)O)n1ncn(-c2ccc(N3CCN(c4ccc(OC[C@@H]5CO[C@@](Cn6cncn6)(c6ccc(F)cc6F)C5)cc4)CC3)cc2)c1=O` [Posaconazole], the cell viability in assay [1] came to 106; in assay [2], 88.3.

Turning to `COc1ccc2cc([C@H](C)C(=O)O)ccc2c1` [Naproxen], the cell viability in assay [1] amounted to 54.9; in assay [2], 104.

On to `Cc1cn([C@H]2C[C@H](N=[N+]=[N-])[C@@H](CO)O2)c(=O)[nH]c1=O` [Zidovudine], for which the cell viability was 64.8 in assay [1] and 102 in assay [2].

As for `CC12CC3CC(C)(C1)CC(N)(C3)C2` [Memantine . hydrochloride], the figures for the cell viability in assay [1] and in assay [2] were 60.5 and 108, respectively.

With `O=C(O)C[C@H](O)C[C@H](O)/C=C/c1c(C2CC2)nc2ccccc2c1-c1ccc(F)cc1` [Pitavastatin Calcium], the cell viability in assay [1] was found to be 38.1; in assay [2], 58.8.

Turning to `CCc1ccc(CCOc2ccc(CC3SC(=O)NC3=O)cc2)nc1` (stereo not drawn) [Pioglitazone·HCl], the cell viability in assay [1] came out at 67.5; in assay [2] it was 87.7.

Take `CC(=O)NCCCS(=O)(=O)O` [Acamprosate calcium]: the cell viability turned out to be 94.4 in assay [1] and 81.5 in assay [2].

On to `CCNC(=O)CCC/C=C\C[C@@H]1[C@@H](/C=C/[C@@H](O)CCc2ccccc2)[C@H](O)C[C@@H]1O` [Bimatoprost], for which the cell viability stood at 122 in assay [1] and 106 in assay [2].

(Values after the supplement of paper PMC9433722.)
